{"source": "the supplement of paper PMC8728848", "binders": {"B1": {"name": "DC-Sign-R (Homo sapiens), Q9H2X3 (protein)", "chain": "MSDSKEPRVQQLGLLEEDPTTSGIRLFPRDFQFQQIHGHKSSTGCLGHGALVLQLLSFMLLAGVLVAILVQVSKVPSSLSQEQSEQDAIYQNLTQLKAAVGELSEKSKLQEIYQELTQLKAAVGELPEKSKLQEIYQELTRLKAAVGELPEKSKLQEIYQELTRLKAAVGELPEKSKLQEIYQELTRLKAAVGELPEKSKLQEIYQELTELKAAVGELPEKSKLQEIYQELTQLKAAVGELPDQSKQQQIYQELTDLKTAFERLCRHCPKDWTFFQGNCYFMSNSQRNWHDSVTACQEVRAQLVVIKTAEEQNFLQLQTSRSNRFSWMGLSDLNQEGTWQWVDGSPLSPSFQRYWNSGEPNNSGNEDCAEFSGSGWNDNRCDVDNYWICKKPAACFRDE"}}, "assay_in_all_cases": "glycan array binding signal (z-score within array); higher = stronger binding", "conditions_in_all_cases": "glycan notation: IUPAC condensed, linker removed", "key": {"[1]": {"target": "GalNAc3S(b1-4)GlcNAc3S", "procedure,_shortened": "(§1)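 The Consortium for Functional Glycomics database supplied 3228 glycan arrays, of which those lacking an available protein sequence were dropped. The binding signal, a within-array Z-score, was averaged across arrays of the same protein sequence and across linkers. Negative scores can be read as non-binding.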"}, "[2]": {"target": "GalNAc3S(b1-4)[Fuc(a1-3)]GlcNAc", "procedure,_shortened": "as §1"}, "[3]": {"target": "GalNAc4S6S(b1-4)GlcNAc", "procedure,_shortened": "as §1"}, "[4]": {"target": "GalNAc6S(b1-4)GlcNAc", "procedure,_shortened": "as §1"}, "[5]": {"target": "Glc(a1-4)Glc", "procedure,_shortened": "as §1"}, "[6]": {"target": "Glc(a1-4)Glc(a1-4)Glc(a1-4)Glc", "procedure,_shortened": "as §1"}, "[7]": {"target": "Glc(a1-6)Glc(a1-6)Glc", "procedure,_shortened": "as §1"}, "[8]": {"target": "Glc(a1-6)Glc(a1-6)Glc(a1-6)Glc", "procedure,_shortened": "as §1"}, "[9]": {"target": "Glc(b1-4)Glc", "procedure,_shortened": "as §1"}, "[10]": {"target": "Glc(b1-6)Glc", "procedure,_shortened": "as §1"}, "[11]": {"target": "GlcA(b1-3)Gal", "procedure,_shortened": "as §1"}, "[12]": {"target": "GlcA(b1-3)GlcNAc", "procedure,_shortened": "as §1"}, "[13]": {"target": "GlcA(b1-6)Gal", "procedure,_shortened": "as §1"}, "[14]": {"target": "GlcA3S(b1-3)Gal(b1-4)GlcNAc(b1-2)Man", "procedure,_shortened": "as §1"}, "[15]": {"target": "GlcA3S(b1-3)Gal(b1-4)GlcNAc(b1-3)Gal(b1-4)Glc", "procedure,_shortened": "as §1"}, "[16]": {"target": "GlcNAc(a1-3)Gal(b1-4)GlcNAc", "procedure,_shortened": "as §1"}, "[17]": {"target": "GlcNAc(a1-4)Gal(b1-3)GlcNAc", "procedure,_shortened": "as §1"}, "[18]": {"target": "GlcNAc(a1-4)Gal(b1-4)GalNAc", "procedure,_shortened": "as §1"}, "[19]": {"target": "GlcNAc(a1-4)Gal(b1-4)GlcNAc", "procedure,_shortened": "as §1"}, "[20]": {"target": "GlcNAc(a1-4)Gal(b1-4)GlcNAc(b1-3)Gal(b1-4)Glc", "procedure,_shortened": "as §1"}, "[21]": {"target": "GlcNAc(a1-4)Gal(b1-4)GlcNAc(b1-3)Gal(b1-4)GlcNAc", "procedure,_shortened": "as §1"}, "[22]": {"target": "GlcNAc(a1-4)Gal(b1-4)GlcNAc(b1-3)Gal(b1-4)GlcNAc(b1-3)Gal(b1-4)GlcNAc", "procedure,_shortened": "as §1"}, "[23]": {"target": "GlcNAc(a1-4)Gal(b1-4)GlcNAc(b1-3)Gal(b1-4)[Fuc(a1-3)]GlcNAc(b1-3)Gal(b1-4)[Fuc(a1-3)]GlcNAc", "procedure,_shortened": "as §1"}, "[24]": {"target": "GlcNAc(a1-6)Gal(b1-4)GlcNAc", "procedure,_shortened": "as §1"}, "[25]": {"target": "GlcNAc(b1-2)Gal(b1-3)GalNAc", "procedure,_shortened": "as §1"}, "[26]": {"target": "GlcNAc(b1-2)Man(a1-3)[GlcNAc(b1-2)Man(a1-6)]Man(b1-4)GlcNAc(b1-4)GlcNAc", "procedure,_shortened": "as §1"}, "[27]": {"target": "GlcNAc(b1-2)Man(a1-3)[GlcNAc(b1-2)Man(a1-6)]Man(b1-4)GlcNAc(b1-4)[Fuc(a1-6)]GlcNAc", "procedure,_shortened": "as §1"}, "[28]": {"target": "GlcNAc(b1-2)Man(a1-3)[GlcNAc(b1-4)][GlcNAc(b1-2)Man(a1-6)]Man(b1-4)GlcNAc(b1-4)GlcNAc", "procedure,_shortened": "as §1"}, "[29]": {"target": "GlcNAc(b1-2)Man(a1-3)[GlcNAc(b1-4)][GlcNAc(b1-2)Man(a1-6)]Man(b1-4)GlcNAc(b1-4)[Fuc(a1-6)]GlcNAc", "procedure,_shortened": "as §1"}, "[30]": {"target": "GlcNAc(b1-2)[GlcNAc(b1-4)]Man(a1-3)[GlcNAc(b1-2)Man(a1-6)]Man(b1-4)GlcNAc(b1-4)GlcNAc", "procedure,_shortened": "as §1"}, "[31]": {"target": "GlcNAc(b1-2)[GlcNAc(b1-4)]Man(a1-3)[GlcNAc(b1-4)][GlcNAc(b1-2)Man(a1-6)]Man(b1-4)GlcNAc(b1-4)GlcNAc", "procedure,_shortened": "as §1"}, "[32]": {"target": "GlcNAc(b1-2)[GlcNAc(b1-4)]Man(a1-3)[GlcNAc(b1-4)][GlcNAc(b1-2)[GlcNAc(b1-6)]Man(a1-6)]Man(b1-4)GlcNAc(b1-4)GlcNAc", "procedure,_shortened": "as §1"}, "[33]": {"target": "GlcNAc(b1-2)[GlcNAc(b1-4)]Man(a1-3)[GlcNAc(b1-4)][GlcNAc(b1-2)[GlcNAc(b1-6)]Man(a1-6)]Man(b1-4)GlcNAc(b1-4)[Fuc(a1-6)]GlcNAc", "procedure,_shortened": "as §1"}, "[34]": {"target": "GlcNAc(b1-2)[GlcNAc(b1-6)]Man(a1-6)[GlcNAc(b1-2)Man(a1-3)]Man(b1-4)GlcNAc(b1-4)GlcNAc", "procedure,_shortened": "as §1"}, "[35]": {"target": "GlcNAc(b1-2)[GlcNAc(b1-6)]Man(a1-6)[GlcNAc(b1-2)Man(a1-3)]Man(b1-4)GlcNAc(b1-4)[Fuc(a1-6)]GlcNAc", "procedure,_shortened": "as §1"}, "[36]": {"target": "GlcNAc(b1-2)[GlcNAc(b1-6)]Man(a1-6)[GlcNAc(b1-4)][GlcNAc(b1-2)Man(a1-3)]Man(b1-4)GlcNAc(b1-4)GlcNAc", "procedure,_shortened": "as §1"}, "[37]": {"target": "GlcNAc(b1-3)Fuc", "procedure,_shortened": "as §1"}, "[38]": {"target": "GlcNAc(b1-3)Gal", "procedure,_shortened": "as §1"}}, "note": "This is one part of the list."}
{"binder": "B1", "values": [{"measurement": "glycan array binding signal (z-score)", "setting": "[1]", "value": 0.277}, {"measurement": "glycan array binding signal (z-score)", "setting": "[2]", "value": -0.794}, {"measurement": "glycan array binding signal (z-score)", "setting": "[3]", "value": -0.634}, {"measurement": "glycan array binding signal (z-score)", "setting": "[4]", "value": 1.19}, {"measurement": "glycan array binding signal (z-score)", "setting": "[5]", "value": -0.446}, {"measurement": "glycan array binding signal (z-score)", "setting": "[6]", "value": -0.785}, {"measurement": "glycan array binding signal (z-score)", "setting": "[7]", "value": -0.104}, {"measurement": "glycan array binding signal (z-score)", "setting": "[8]", "value": -0.353}, {"measurement": "glycan array binding signal (z-score)", "setting": "[9]", "value": -0.525}, {"measurement": "glycan array binding signal (z-score)", "setting": "[10]", "value": -0.1}, {"measurement": "glycan array binding signal (z-score)", "setting": "[11]", "value": -0.815}, {"measurement": "glycan array binding signal (z-score)", "setting": "[12]", "value": -0.63}, {"measurement": "glycan array binding signal (z-score)", "setting": "[13]", "value": -0.71}, {"measurement": "glycan array binding signal (z-score)", "setting": "[14]", "value": -0.485}, {"measurement": "glycan array binding signal (z-score)", "setting": "[15]", "value": 0.36}, {"measurement": "glycan array binding signal (z-score)", "setting": "[16]", "value": 0.698}, {"measurement": "glycan array binding signal (z-score)", "setting": "[17]", "value": 0.49}, {"measurement": "glycan array binding signal (z-score)", "setting": "[18]", "value": -0.357}, {"measurement": "glycan array binding signal (z-score)", "setting": "[19]", "value": -0.325}, {"measurement": "glycan array binding signal (z-score)", "setting": "[20]", "value": -0.556}, {"measurement": "glycan array binding signal (z-score)", "setting": "[21]", "value": -0.616}, {"measurement": "glycan array binding signal (z-score)", "setting": "[22]", "value": -0.21}, {"measurement": "glycan array binding signal (z-score)", "setting": "[23]", "value": 0.712}, {"measurement": "glycan array binding signal (z-score)", "setting": "[24]", "value": 1.41}, {"measurement": "glycan array binding signal (z-score)", "setting": "[25]", "value": 0.112}, {"measurement": "glycan array binding signal (z-score)", "setting": "[26]", "value": 0.112}, {"measurement": "glycan array binding signal (z-score)", "setting": "[27]", "value": 0.846}, {"measurement": "glycan array binding signal (z-score)", "setting": "[28]", "value": 0.048}, {"measurement": "glycan array binding signal (z-score)", "setting": "[29]", "value": 0.246}, {"measurement": "glycan array binding signal (z-score)", "setting": "[30]", "value": -0.664}, {"measurement": "glycan array binding signal (z-score)", "setting": "[31]", "value": 2.91}, {"measurement": "glycan array binding signal (z-score)", "setting": "[32]", "value": 0.048}, {"measurement": "glycan array binding signal (z-score)", "setting": "[33]", "value": 1.65}, {"measurement": "glycan array binding signal (z-score)", "setting": "[34]", "value": 0.046}, {"measurement": "glycan array binding signal (z-score)", "setting": "[35]", "value": -0.501}, {"measurement": "glycan array binding signal (z-score)", "setting": "[36]", "value": 0.972}, {"measurement": "glycan array binding signal (z-score)", "setting": "[37]", "value": 1.96}, {"measurement": "glycan array binding signal (z-score)", "setting": "[38]", "value": -0.169}]}
